In all, about 1,500 compounds were measured (“activity”: median about 2, lowest 2% from about -18 on). This is one part of the list. Active and inactive are the calls of the source.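 The calls were made as follows: active = inhibition of at least 40% at 10 µM; inconclusive = no clear call, values can overlap the other calls; inactive = the rest.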
What follows are compounds tested against Sulfhydryl oxidase 1 (Homo sapiens) (UniProt O00391) (assay: QSOX1 enzyme inhibitors, confirmation, biochemical, ROS-Glo luminescence, single concentration (AID 1347421;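 also: 0% = DMSO wells with enzyme and 100% = wells lacking QSOX1 enzyme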)). Settings: recombinant hQSOX1, RNase A substrate, ROS-Glo H2O2 luminescence; at 10 µM.

Protein sequences, listed by entry. Tags and fused reporters are not part of them. Lines headed by an entry give the natural chain unless they say otherwise; changes in a name come on top.
UniProt O00391: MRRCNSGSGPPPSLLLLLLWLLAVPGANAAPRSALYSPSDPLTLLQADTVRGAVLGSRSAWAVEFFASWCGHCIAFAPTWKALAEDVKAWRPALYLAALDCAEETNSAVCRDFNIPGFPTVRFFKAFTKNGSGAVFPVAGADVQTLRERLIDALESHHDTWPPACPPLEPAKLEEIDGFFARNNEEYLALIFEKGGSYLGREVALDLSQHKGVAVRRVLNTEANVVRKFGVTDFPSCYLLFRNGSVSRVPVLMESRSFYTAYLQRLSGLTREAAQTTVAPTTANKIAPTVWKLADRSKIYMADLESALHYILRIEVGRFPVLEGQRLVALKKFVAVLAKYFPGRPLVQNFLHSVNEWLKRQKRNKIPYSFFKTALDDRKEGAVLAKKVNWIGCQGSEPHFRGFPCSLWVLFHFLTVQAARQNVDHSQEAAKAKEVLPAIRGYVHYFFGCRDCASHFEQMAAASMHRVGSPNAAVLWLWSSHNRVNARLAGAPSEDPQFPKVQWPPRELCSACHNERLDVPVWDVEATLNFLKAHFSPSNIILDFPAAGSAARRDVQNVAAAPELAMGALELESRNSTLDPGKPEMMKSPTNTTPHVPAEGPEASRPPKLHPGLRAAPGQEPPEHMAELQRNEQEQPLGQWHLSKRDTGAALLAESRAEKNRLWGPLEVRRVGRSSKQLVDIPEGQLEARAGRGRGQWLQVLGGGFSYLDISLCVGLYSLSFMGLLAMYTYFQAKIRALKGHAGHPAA

Row | SMILES | activity
1 | OCC1CCN(C2CCCN(C3Cc4ccccc4C3)C2)CC1 (configuration not stated) | 0.8%
2 | CN(CC1CCN(CCc2ccc(F)cc2)CC1)C(=O)c1cc2ccccc2oc1=O | inactive: -0.8%
3 | Cc1ccc(CN2C(=O)CC(N3CCOCC3)C2=O)cc1 (configuration not stated) | 6.6%
4 | CC(C)N1CCC(CN(C)C(=O)Cn2nnnc2CN2CCOCC2)C1 (configuration not stated) | inactive: -4.8%
5 | CCOC(=O)C1CCN(C(=O)CCc2ccc(OC)cc2)CC1 | inactive: -2%
6 | O=C(NCc1ccc2c(c1)OCO2)C1CCC(=O)N(CCc2cccc(F)c2)C1 (configuration not stated) | inactive: -2%
7 | Cc1cc(=O)oc(C)c1C(=O)NC1CCCN(Cc2ccc(Cl)cc2)C1 (configuration not stated) | 10.3%
8 | CC1CCN(Cc2nnnn2CC(=O)NCCCn2ccnc2)CC1 | 7.1%
9 | O=C1CCCCN1CCNc1ccc(-c2nc(-c3ccccc3F)no2)cn1 | 8.2%
10 | CN(C)S(=O)(=O)N1CCC(Oc2cccc(C(=O)NC3CCOC3)c2)CC1 (configuration not stated) | 6.3%
11 | FC(F)(F)c1cc(-c2ccco2)nc(NCc2cccs2)n1 | inactive: -4.8%
12 | CCN1CCN(C(=O)N(CC)CC)CC1 | 3.9%
13 | CN(Cc1ccccc1)C(=O)CCC1CCN(C(=O)c2cc[n+]([O-])cc2)CC1 | 5.5%
14 | CCCn1c(=O)c2c(nc3n2CCN3Cc2ccco2)n(C)c1=O | inactive: -9.9%
15 | C#CCN(CC=C)C(=O)CC1C(=O)NCCN1C/C=C/c1ccccc1OC (configuration not stated) | inactive: -4.1%
16 | c1cc(-c2n[nH]c(-c3ccncc3)n2)ccn1 | inactive: -13%
17 | Cc1cc(N2CCN(C(=O)c3ccco3)CC2)n2ncnc2n1 | inactive: -11.7%
18 | CS(=O)(=O)c1ncc(CN(CCO)Cc2ccccc2)n1CC1CCCO1 (configuration not stated) | inactive: -2.6%
19 | Cc1cccc(C)c1NC(=O)C1C2C=CC(C3CC23)C1C(=O)O (configuration not stated) | inactive: -6.3%
20 | COc1ccc(CNCc2c(C(=O)N3C[C@@H](C)O[C@@H](C)C3)nc3sccn23)cc1 | 2.5%
21 | Cc1cccc(CN2CCOC(Cc3cccc(C(F)(F)F)c3)C2)n1 (configuration not stated) | 5.3%
22 | O=C1CCCCN1CC(=O)N1CCOC(CCc2ccccc2)C1 (configuration not stated) | 4.5%

Row | SMILES | activity
23 | COc1cc(CN(C)Cc2ccncn2)ccc1OCC(O)CN(C)C(C)C (configuration not stated) | 1.4%
24 | CN(CCc1ccccn1)C(=O)CCC1CCCN(C(=O)CSc2ccccn2)C1 (configuration not stated) | 7.1%
25 | O=C(CSc1nc2ncccc2[nH]1)NC1CCCCCC1 | 2.3%
26 | COCCCC1CCN(C(=O)C2(N(C)C)Cc3ccccc3C2)CC1 | 7.6%
27 | Cc1cc(NCCc2ccc(Cl)cc2)n2ncnc2n1 | inactive: -1.3%
28 | Cc1nc(N)nc2c1C(=O)CC(c1ccco1)C2 (configuration not stated) | inactive: -9.8%
29 | Cn1cc(CCC(=O)N2CCOC(CCc3ccccc3)C2)cn1 (configuration not stated) | 4.7%
30 | Cc1[nH]ncc1C(=O)N1CCOC(CCc2ccccc2)C1 (configuration not stated) | 5.8%
31 | O=c1c2cc(-c3ccccc3)sc2ncn1CC(O)CO (configuration not stated) | 7.1%
32 | O=C(CCC1CCN(S(=O)(=O)CC(F)(F)F)CC1)NCc1ccc(F)cc1 | 2.1%
33 | Cc1ccc(S(=O)(=O)N2CCCC2)cc1C(=O)NCC(C)C | 2%
34 | CCC1=NOC(Cn2ncc(N3CCc4ccccc4C3)cc2=O)C1 (configuration not stated) | 9.6%
35 | C=CCN(Cc1nc(-c2ccc(C(=O)OC)cc2)oc1C)C1CCS(=O)(=O)C1 (configuration not stated) | inactive: 0%
36 | NC(=O)C1CCCN(Cc2cn(-c3ccccc3)nc2-c2ccc3c(c2)OCO3)C1 (configuration not stated) | inactive: -1.5%
37 | CN(Cc1ccccc1)C(=O)CCC1CCN(C(=O)C2CC=CCC2)CC1 (configuration not stated) | 18.7%
38 | CCc1nc(C)c(C(=O)NC2CC(=O)N(CCCc3ccccc3)C2)o1 (configuration not stated) | 7.5%
39 | O=C(c1ccc[nH]1)N1CCCC(Cn2cc(-c3ccc(F)cc3)nn2)C1 (configuration not stated) | 2.3%
40 | COc1cc(CN(C)Cc2cccnc2)ccc1OCC(O)CN1CCSCC1 (configuration not stated) | inactive: -5.8%
41 | Cc1cc(N2CCN(C(=O)c3cn(Cc4ccccc4F)nn3)CC2)cc(C)n1 | 2.1%
42 | CCOC(=O)CN(C)C(=O)c1cc(COc2cccc(C(F)(F)F)c2)on1 | inactive: -0.2%
43 | O=C(Cn1nc2ccccc2n1)N1CCCC(Nc2ccc3c(c2)OCCO3)C1 (configuration not stated) | 3.5%
44 | COc1ccc(-c2noc(CN(Cc3ccccn3)CC3CCCO3)n2)c(OC)c1OC (configuration not stated) | 3.3%

Shown with tabs: 3 of the compounds above.
Row	SMILES	activity
33	Cc1ccc(S(=O)(=O)N2CCCC2)cc1C(=O)NCC(C)C	2%
34	CCC1=NOC(Cn2ncc(N3CCc4ccccc4C3)cc2=O)C1 (configuration not stated)	9.6%
35	C=CCN(Cc1nc(-c2ccc(C(=O)OC)cc2)oc1C)C1CCS(=O)(=O)C1 (configuration not stated)	inactive: 0%

(list continues)

Row | SMILES | activity
45 | Cc1cc(N2CCN(c3ccccn3)CC2)n2ncnc2n1 | inactive: -15.1%
46 | Fc1ccc(/C=C/CNC2CCCN(c3ncccn3)C2)cc1 (configuration not stated) | 0.1%
47 | COC(=O)c1ccc(C(=O)N2CCOC(Cc3cccc(F)c3)C2)cc1 (configuration not stated) | 14.3%
48 | Cc1ccccc1C(=O)Nc1c(Cl)ccc2nsnc12 | 0.9%
49 | CN(Cc1ncc[nH]1)CC1CCCN(CCc2ccc(Cl)cc2)C1 (configuration not stated) | 3%
50 | COc1ccc(-c2nc(CN(Cc3ccncc3)C[C@@H]3CCC(=O)N3)c(C)o2)c(F)c1 | 12.3%
51 | COCCC(=O)Nc1ccc2c(c1)CN(Cc1cccn1-c1ncccn1)CC2 | inactive: -2.8%
52 | O=C(CCC1CCCN(Cc2ccccn2)C1)N1CCN(Cc2ccccc2)CC1 (configuration not stated) | inactive: -0.9%
53 | O=C(c1ccc(CS(=O)(=O)c2ccccc2)cc1)N1CCCC1 | inactive: -0.4%
54 | O=C1CCCN1CC(=O)N1CCOC(Cc2cccc(C(F)(F)F)c2)C1 (configuration not stated) | 4.6%
55 | CCOC(=O)C1(CCOC)CCN(CCc2ccccc2)CC1 | 5.5%
56 | CNC(=O)COc1ccc(C(C)(C)c2ccccc2)cc1 | inactive: -8.4%
57 | Cc1cc(C)n(-c2cccc(CN3CCOC(CCN(C)C)C3)c2)n1 (configuration not stated) | inactive: -0.4%
58 | Cc1cc(-c2nn(-c3ccccc3F)cc2CN2CCCN(C=O)CC2)c(C)s1 | 7.5%
59 | COC(=O)C1CCN(CC(O)COc2ccc(CNCCOC(C)C)cc2)CC1 (configuration not stated) | inactive: -0.5%
60 | CC(C)(CO)CNC(=O)CCc1nnc(CCCc2ccccc2)o1 | 4.9%
61 | COCC(=O)N1CCc2[nH]nc(-c3ccc(-c4ccccc4)cc3)c2C1 | 13.4%
62 | Fc1cccc(C2(CNC3CCN(Cc4ccccn4)CC3)CCOC2)c1 (configuration not stated) | 7.9%
63 | Cn1c(C(=O)N2CCc3ccccc3C2)cc2c(=O)n3ccccc3nc21 | 3.7%
64 | CC(C)Cc1ccc(CN2CCCC(NC3CCN(C)CC3)C2)cc1 (configuration not stated) | inactive: -2.5%
65 | N#Cc1ccc(N2CCN(CC3(c4cccc(F)c4)CCOC3)CC2)nc1 (configuration not stated) | 1.9%
66 | Cn1ccnc1CN1CCCC1c1ccc(C(=O)NCc2ccncc2)s1 (configuration not stated) | inactive: -2%

Row | SMILES | activity
67 | O=C(Cc1cn2ccsc2n1)N1CCc2onc(-c3ccccc3)c2C1 | 4.3%
68 | COc1ccccc1CCN1CCCC(CN(C)C(=O)CSc2ncccn2)C1 (configuration not stated) | inactive: -4.1%
69 | CC(C)C(=O)N1CCN(c2ccc(NC(=O)c3ccccn3)cc2)CC1 | 7.7%
70 | Cc1nonc1CC(=O)NC1CCCN(CCc2ccccc2)C1 (configuration not stated) | inactive: -1.9%
71 | Cc1ccccc1-c1nc(CN2CCN(c3ccccn3)CC2)cs1 | 33.6%
72 | c1ccc(-c2nc(CN3CCN(Cc4ccco4)CC3)cs2)cc1 | active: 85.9%
73 | CC(C)CCCC1CN(Cc2ncc[nH]2)CCO1 (configuration not stated) | 5.8%
74 | c1ccc(-c2nn3c(-c4cccs4)nnc3s2)nc1 | inactive: -20.4%
75 | Cn1cc(/C=C/C(=O)N2CCCC(N3CCN(c4ccccc4F)CC3)C2)cn1 (configuration not stated) | 11.9%
76 | CS(=O)(=O)c1cccc(S(=O)(=O)NC2CCCC2)c1 | 7%
77 | COCc1ccc(C(=O)N2CCOC(CC3CCCCC3)C2)o1 (configuration not stated) | 6%
78 | O=C(CC1C(=O)NCCN1CCCc1ccccc1)NCCCn1cccn1 (configuration not stated) | 9.3%
79 | O=C(CS(=O)(=O)c1ccccc1)Nc1nncs1 | 1.4%
80 | COc1ccc(C(=O)Nc2c(Cl)ccc3nsnc23)cc1OC | 1.5%
81 | Cc1cccc(CNC2CC(=O)N(CCc3ccccc3)C2)n1 (configuration not stated) | 3.2%
82 | COc1ccc(-c2ccccc2NC(=O)C2CCCN2C2CCN(C)CC2)cc1 (configuration not stated) | inactive: -1.7%
83 | COc1ccc(CC2CN(c3ccccn3)CCO2)cc1 (configuration not stated) | inactive: -0.7%
84 | O=C1CC(NCc2ncc[nH]2)CN1CCc1cccc(Cl)c1 (configuration not stated) | inactive: -16.4%
85 | CC(=O)n1c2ccccc2n2c(C)ncc12 | inactive: -6.7%
86 | COc1cccc(C(=O)N2CCOC(CCCC(C)C)C2)c1OC (configuration not stated) | 5.5%
87 | O[C@@H]1CN(Cc2ccccc2OC2CCCC2)CC[C@H]1N1CCOCC1 | 2.2%
88 | Cc1nc(C)c(CN2C[C@H]3OC(=O)N(CCCc4ccc(F)cc4)[C@H]3C2)nc1C | 8.2%

Row | SMILES | activity
89 | CCCCNC(=O)N1CCN(Cc2ccccc2Cl)CC1 | inactive: -7%
90 | COc1cccc(CN2CCNC(=O)C2CC(=O)NCCc2cn3ccccc3n2)c1OC (configuration not stated) | 1.8%
91 | CN(C)S(=O)(=O)N1CCc2ccc(NC(=O)C3CCCO3)cc2C1 (configuration not stated) | 2.5%
92 | Cc1n[nH]c(C)c1NC(=O)c1cc2ccccc2oc1=O | inactive: -15.4%
93 | COc1ccc(F)c(CN2CCCC3(CCN(CCCn4cccn4)C3)C2)c1 (configuration not stated) | 4.7%
94 | CCN1CCN(CC(O)COc2cccc(CNCC3CCN(C)CC3)c2)CC1 (configuration not stated) | 0.4%
95 | CCOC(=O)c1nc(-c2ccc(F)cc2)no1 | inactive: -21.6%
96 | O=C(CCn1cncn1)N1CCOC(CCc2ccccc2)C1 (configuration not stated) | inactive: -3.7%
97 | CSc1nccc(N2C[C@H]3OC(=O)N(CCN4CCCCC4)[C@H]3C2)n1 | 9%
98 | COc1ccccc1OCC(=O)NCC1CCCN(C(=O)CSc2nc(C)cs2)C1 (configuration not stated) | 6.2%
99 | CN(CC1(O)CCCN(CC(C)(C)C)C1=O)C1CCOCC1 (configuration not stated) | 4.9%
100 | c1cncc(-c2nn3cnnc3s2)c1 | inactive: -3.2%
101 | O=C1CCCN1c1cccc(NCC2(c3ccc(F)cc3)CCOC2)c1 (configuration not stated) | 3.1%
102 | ClC1=C(OCCNCC2CCCO2)[C+]=Cc2ccccc21 (configuration not stated) | 0.2%
103 | O=C(COc1ccccc1)Nc1ccc(N2CCN(C(=O)c3ccco3)CC2)cc1 | inactive: -18%
104 | Cn1cc([C@@H]2C[C@H]3CN(Cc4cccc(Cl)c4)C(=O)[C@]34CCCN24)cn1 | inactive: 0%
105 | CCN(Cc1cnn(C)c1)Cc1cccc(OC)c1OCC(O)CN1CCOCC1 (configuration not stated) | inactive: -4%
106 | Cc1c(CNCC2(O)CCCN(Cc3ccc(F)c(F)c3)C2=O)cnn1C (configuration not stated) | inactive: -3.9%
107 | O=C(Cn1cncn1)N1CCOC(Cc2cccc(C(F)(F)F)c2)C1 (configuration not stated) | inactive: -4.8%

Part of the list above, tab-delimited:
Row	SMILES	activity
95	CCOC(=O)c1nc(-c2ccc(F)cc2)no1	inactive: -21.6%
103	O=C(COc1ccccc1)Nc1ccc(N2CCN(C(=O)c3ccco3)CC2)cc1	inactive: -18%
104	Cn1cc([C@@H]2C[C@H]3CN(Cc4cccc(Cl)c4)C(=O)[C@]34CCCN24)cn1	inactive: 0%
107	O=C(Cn1cncn1)N1CCOC(Cc2cccc(C(F)(F)F)c2)C1 (configuration not stated)	inactive: -4.8%

Source: PubChem BioAssay AID1347421 (Sanford-Burnham Center for Chemical Genomics, 2020)
